In the assay the target is SARS-CoV-2 spike RBD-ACE2 interaction (Homo sapiens, UniProt Q9BYF1). The assay is classed as binding.

The chains behind the UniProt entries cited, without tags or fusion partners. Residues count along the entry.
UniProt Q9BYF1, 18-740: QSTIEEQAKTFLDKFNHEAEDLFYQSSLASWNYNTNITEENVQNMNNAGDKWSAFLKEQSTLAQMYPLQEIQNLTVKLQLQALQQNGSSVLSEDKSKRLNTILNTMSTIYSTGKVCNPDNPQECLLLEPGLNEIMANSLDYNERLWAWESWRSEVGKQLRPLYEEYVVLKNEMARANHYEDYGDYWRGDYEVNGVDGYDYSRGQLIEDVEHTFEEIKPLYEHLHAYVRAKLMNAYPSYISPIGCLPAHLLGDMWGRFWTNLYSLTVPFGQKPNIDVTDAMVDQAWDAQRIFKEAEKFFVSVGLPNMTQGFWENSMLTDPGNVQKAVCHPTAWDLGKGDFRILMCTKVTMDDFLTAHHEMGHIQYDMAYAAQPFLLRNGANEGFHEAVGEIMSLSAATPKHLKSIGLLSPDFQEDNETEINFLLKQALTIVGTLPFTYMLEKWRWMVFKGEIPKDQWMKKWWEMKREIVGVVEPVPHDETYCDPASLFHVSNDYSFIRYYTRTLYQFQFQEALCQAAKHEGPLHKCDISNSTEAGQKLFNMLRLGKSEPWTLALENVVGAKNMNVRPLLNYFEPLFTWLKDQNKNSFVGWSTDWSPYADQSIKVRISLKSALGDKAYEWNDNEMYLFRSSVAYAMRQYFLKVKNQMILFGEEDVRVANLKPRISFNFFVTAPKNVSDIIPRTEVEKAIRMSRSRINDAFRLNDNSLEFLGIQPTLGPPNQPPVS

SMILES strings stand for the structures.

Consider `Clc1ccc(CO/N=C(\Cn2ccnc2)c2ccc(Cl)cc2Cl)c(Cl)c1` [oxiconazole nitrate], for which the “reduction in bioreporter signal, method B” value is −4%.

These data come from paper PMC9075979 (Molecular Therapy, 2022).
